Source: article PMC12370252
Results are given in words; binding and its absence hold for the method and conditions named. In cells and extracts the contact can be indirect. Some binding calls cover weakened binding; strength is not graded here.

Sequences of proteins named here, by UniProt entry; tags and fusion partners are left off. A change or cut given only in a name is not applied to a line headed by its entry. Residues count along the entry.
UniProt Q9UBI1, residues 1-124: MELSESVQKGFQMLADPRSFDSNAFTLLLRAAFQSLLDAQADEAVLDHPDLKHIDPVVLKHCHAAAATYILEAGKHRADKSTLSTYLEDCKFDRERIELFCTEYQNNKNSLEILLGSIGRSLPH
UniProt P84077: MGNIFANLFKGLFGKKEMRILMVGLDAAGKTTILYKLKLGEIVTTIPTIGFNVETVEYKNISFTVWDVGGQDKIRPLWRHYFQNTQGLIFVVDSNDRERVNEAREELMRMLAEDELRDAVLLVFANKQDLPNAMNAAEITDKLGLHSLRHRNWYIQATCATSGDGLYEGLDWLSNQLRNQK

Molecular target: 3xFLAG-tagged COMMD3-NTD co-expressed in 293T cells for co-IP (human) (UniProt Q9UBI1)
Assay: co-IP; HA-tagged ARF1 Q71L and 3xFLAG-tagged COMMD3-NTD co-expressed in 293T cells; COMMD3-NTD immunoprecipitated with anti-FLAG antibodies, detection by immunoblotting; IP buffer 25 mM HEPES pH 7.4, 138 mM NaCl, 0.5% CHAPS

HA-tagged human ARF1 Q71L (from UniProt P84077 1-181)
binding: binds
